Laboratory results published in patent US7368420B1, “Akt compositions for enhancing survival of cells” (Caritas St. Elizabeth's Medical Center of Boston, Inc., priority 1998, dated 2008).
At least one compound was matched to its structure with a doubt left.

Test system: HUVECs
Assay: HUVEC cell viability, Trypan-blue exclusion assay
Type: cell-based, human

## COC[C@H]1OC(=O)c2coc3c2[C@@]1(C)C1=C(C3=O)[C@@H]2CCC(=O)[C@@]2(C)C[C@H]1OC(C)=O [wortmannin, Wortmannin]
  VEGF-mediated HUVEC survival: blocked the ability of VEGF to rescue HUVEC cultures from cell-death
